These are yes or no findings as the source states them, for the method shown. Some binding calls cover weakened binding; strength is not graded here.
Biological target: TA*p63α (UniProt Q9H3D4)
Test: SEC; in vitro translated protein in rabbit reticulocyte lysate on Superose 6 3.2/300, 50 mM sodium phosphate pH 7.8, 100 mM NaCl, 4 °C; fractions analysed by western blot

B1: TA*p63α (protein, UniProt Q9H3D4-1 1-680)
chain: MNFETSRCATLQYCPDPYIQRFVETPAHFSWKESYYRSTMSQSTQTNEFLSPEVFQHIWDFLEQPICSVQPIDLNFVDEPSEDGATNKIEISMDCIRMQDSDLSDPMWPQYTNLGLLNSMDQQIQNGSSSTSPYNTDHAQNSVTAPSPYAQPSSTFDALSPSPAIPSNTDYPGPHSFDVSFQQSSTAKSATWTYSTELKKLYCQIAKTCPIQIKVMTPPPQGAVIRAMPVYKKAEHVTEVVKRCPNHELSREFNEGQIAPPSHLIRVEGNSHAQYVEDPITGRQSVLVPYEPPQVGTEFTTVLYNFMCNSSCVGGMNRRPILIIVTLETRDGQVLGRRCFEARICACPGRDRKADEDSIRKQQVSDSTKNGDGTKRPFRQNTHGIQMTSIKKRRSPDDELLYLPVRGRETYEMLLKIKESLELMQYLPQHTIETYRQQQQQQHQHLLQKQTSIQSPSSYGNSSPPLNKMNSMNKLPSVSQLINPQQRNALTPTTIPDGMGANIPMMGTHMPMAGDMNGLSPTQALPPPLSMPSTSHCTPPPPYPTDCSIVSFLARLGCSSCLDYFTTQGLTTIYQIEHYSMDDLASLKIPEQFRHAIWKGILDHRQLHEFSSPSHLLRTPSSASTVSVGSSETRGERVIDAVRFTLRQTISFPPRDEWNDFNFDMDARRNKQQRIKEEGE
- binding: binds
